From article PMC12589557
These are yes or no findings as the source states them, for the method shown. Binding seen in cells or lysates may run through a third protein. A result given as binding can be weak or reduced; the word gives no strength.

Protein sequences, listed by entry. Tags and fused reporters are not part of them. Lines headed by an entry give the natural chain unless they say otherwise; changes in a name come on top.
UniProt P61956: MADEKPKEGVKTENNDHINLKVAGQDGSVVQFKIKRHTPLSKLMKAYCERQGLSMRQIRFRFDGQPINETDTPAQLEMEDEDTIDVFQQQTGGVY
UniProt Q969G3: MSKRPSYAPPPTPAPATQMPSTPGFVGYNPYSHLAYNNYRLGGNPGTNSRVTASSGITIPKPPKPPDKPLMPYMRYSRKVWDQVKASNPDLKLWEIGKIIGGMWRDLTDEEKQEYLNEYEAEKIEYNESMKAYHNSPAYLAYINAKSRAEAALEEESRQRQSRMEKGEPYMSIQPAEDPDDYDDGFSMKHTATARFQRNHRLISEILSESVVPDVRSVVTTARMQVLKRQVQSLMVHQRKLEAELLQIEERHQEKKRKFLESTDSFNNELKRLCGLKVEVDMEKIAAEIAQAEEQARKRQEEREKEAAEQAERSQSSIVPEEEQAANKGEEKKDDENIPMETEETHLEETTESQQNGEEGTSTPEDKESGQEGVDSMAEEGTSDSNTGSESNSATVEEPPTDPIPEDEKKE
UniProt Q12824: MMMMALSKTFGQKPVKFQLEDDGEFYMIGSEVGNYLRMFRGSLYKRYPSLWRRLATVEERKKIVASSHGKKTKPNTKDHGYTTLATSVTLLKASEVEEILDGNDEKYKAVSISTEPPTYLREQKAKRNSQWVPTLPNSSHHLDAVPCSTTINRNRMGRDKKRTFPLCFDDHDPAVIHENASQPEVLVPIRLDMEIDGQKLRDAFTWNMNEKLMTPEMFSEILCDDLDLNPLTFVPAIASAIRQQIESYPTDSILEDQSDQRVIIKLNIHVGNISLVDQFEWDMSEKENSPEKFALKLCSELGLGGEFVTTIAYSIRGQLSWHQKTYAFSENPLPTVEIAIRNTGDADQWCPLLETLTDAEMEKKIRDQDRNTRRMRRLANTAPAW

Molecular target: SUMO2 (UniProt P61956)
Experiment: co-IP; SUMO-2/3 affinity beads on nuclear lysate of HS-SY-II and Yamato cells transfected with 6His-SUMO2; untreated or 100 nM TAK-981 for 36 h; IP lysis buffer with NEM; 4 C overnight; IgG control beads

| Substance | binding |
| --- | --- |
| SMARCE1 (from UniProt Q969G3 1-411) | binds |
| SMARCB1 (BAF47) (from UniProt Q12824 1-385) | binds |
